Data as given in PubChem BioAssay AID504786 (Drosophila RNAi Screening Center, 2011).

Aim: 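Positive regulators of HIF-driven reporter output in Drosophila cells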 (primary screen)
Cell system: Drosophila S2 cells with a stable HIF luciferase reporter
Reagent: long dsRNA against Drosophila genes, about 0.2 µg dsRNA per well of a 384-well plate
Timing: three days of knock-down, then 20 h of DFO before reading
Challenge: desferrioxamine (DFO) at 100 µM, an iron chelator that mimics hypoxia, for 20 h
Read-out: 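HIF reporter luminescence in cells given 100 µM DFO for 20 h, using the mouse ldh-a hypoxia-response element, scored as per-plate z-scores; higher means greater loss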
Scale: z-score: higher = stronger loss of HIF reporter signal
The deposit covers about 21,000 reagents; this is a random part of those with a known target gene and a result. 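Primary screen; positive scores mean lost reporter signal, so the sign may be inverted from the usual convention.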 A plus sign joins genes that one reagent is predicted to hit. Not all columns of the deposit are shown. Reagent sequences are not shown.

no.	Gene	amplicon	z-score, replicate 1	z-score, replicate 2	z-score, replicate 3
1	Vajk2	DRSC02540	-0.2	-0.4	
2	Or85f	DRSC16769	-0.2	-0.2	
3	CG9393	DRSC16486	-0.3	-0.5	
4	CG13018	DRSC06274	1.2	0.5	
5	CG13085	DRSC02189	-0.3	-0.5	
6	CG11912	DRSC00332	-0.3	-0.3	
7	Nepl8	DRSC02759	-0.1	-0.2	
8	CG14095	DRSC10098	-0.2	-0.8	
9	CG2065	DRSC06813	-0.2	-0.1	
10	Eogt	DRSC00727	-0.4	-0.2	
11	Hsp60B	DRSC00542	-0.3	-0.5	
12	CG13423	DRSC06386	-0.1	0.8	
13	trol	DRSC17714	0.2	0.1	
14	trol	DRSC17718	0.1	-0.1	
15	trol	DRSC18613	-0.2	-0.6	
16	trol	DRSC18814	-0.3	-0.1	
17	gdl-ORF39 + gdl	DRSC11350	-0.3	0.1	
18	CG15269	DRSC01942	-0.1	-0.5	
19	Trpml + CG42638	DRSC11032	-0.3	0.4	
20	CG32576	DRSC19136	-0.8	-0.7	

7 consecutive reagents already listed, quoted:
no.	Gene	amplicon	z-score, replicate 1	z-score, replicate 2	z-score, replicate 3
1	Vajk2	DRSC02540	-0.2	-0.4	
2	Or85f	DRSC16769	-0.2	-0.2	
3	CG9393	DRSC16486	-0.3	-0.5	
4	CG13018	DRSC06274	1.2	0.5	
5	CG13085	DRSC02189	-0.3	-0.5	
6	CG11912	DRSC00332	-0.3	-0.3	
7	Nepl8	DRSC02759	-0.1	-0.2	

Additional records:
no.	Gene	amplicon	z-score, replicate 1	z-score, replicate 2	z-score, replicate 3
21	Lip2	DRSC02577	-0.4	-0.1	
22	Lip2	DRSC02578	-0.3	-0.3	
23	dally	DRSC08954	-0.3	0	
24	dally	DRSC11338	-0.3	-0.4	
25	yellow-h	DRSC17141	-0.3	-0.7	
26	agt	DRSC12611	-0.3	-0.4	
27	dysc	DRSC10273	-0.3	-0.5	-0.5
28	dysc	DRSC11040	-0.2	0.2	
29	Cpr23B	DRSC00555	-0.1	-0.3	
30	Cyp4s3	DRSC20241	-0.4	0	
31	slx1	DRSC12290	-0.2	-0.5	
32	Gr36c	DRSC02437	-0.3	-0.1	
33	CG33978	DRSC17106	-0.2	-0.2	
34	CG31121	DRSC15361	-0.1	-0.4	
35	CG31121	DRSC15363	-0.2	-0.3	
36	CG33282	DRSC00422	-0.2	-0.6	
37	mod(mdg4) + pre-mod(mdg4)-U	DRSC13476	-0.1	0.1	
38	EDTP	DRSC07409	-0.4	-0.5	
39	CG34176	DRSC00435	-0.1	-0.3	
40	Ir47a	DRSC06215	-0.3	-0.5	
41	CG11454	DRSC00310	-0.1	0	
42	Sdhaf3	DRSC15020	-0.3	-0.3	
43	Ance	DRSC01865	-0.4	-0.2	
44	CG31601	DRSC03678	0.2	0	
45	IntS4	DRSC17810	0.6	0.7	
46	Rcd6	DRSC06054	-0.2	-0.3	
47	eRF3	DRSC03322	-0.3	0.3	
48	CG1275	DRSC08294	-0.2	0.4	
49	PDZ-GEF	DRSC03231	-0.1	0.1	
50	Nepl4	DRSC03239	-0.3	-0.1	
51	Gpo1	DRSC07128	-0.2	-0.4	
52	CG13344	DRSC06378	-0.3	0.2	
53	phyl	DRSC07663	-0.2	0	
54	CG13088	DRSC02192	-0.2	-0.5	
55	Cndp2	DRSC04873	-0.1	-0.3	
56	CG13255	DRSC11702	-0.3	-0.5	
